Literature values as cited in patent publication US7776572B2, “Method for reducing loss of enzyme activity during storage” (Corning Incorporated, priority 1996, dated 2010).
At least one compound was matched to its structure with a doubt left.

Conditions: cited from earlier work

Row | Structure (SMILES) | HLB No.
1 | CCCCCCCCCCCCCCCCOCCOCCO [PEO(2) CETYL ETHER] | 5.3
2 | CCCCCCCC/C=C\CCCCCCCCOCCOCCO [PEO(2) OLEYL ETHER] | 4.9
3 | CCCCCCCCCCCCCCCCCCOCCOCCO [PEO(2) STEARYL ETHER] | 4.9
